Drawing on patent US20060253917A1, this text covers binding for five molecules.

The chains behind the UniProt entries cited, without tags or fusion partners. Where a name states a change or a piece, a line headed by the entry shows the natural chain unless it says otherwise.
UniProt Q6EU39: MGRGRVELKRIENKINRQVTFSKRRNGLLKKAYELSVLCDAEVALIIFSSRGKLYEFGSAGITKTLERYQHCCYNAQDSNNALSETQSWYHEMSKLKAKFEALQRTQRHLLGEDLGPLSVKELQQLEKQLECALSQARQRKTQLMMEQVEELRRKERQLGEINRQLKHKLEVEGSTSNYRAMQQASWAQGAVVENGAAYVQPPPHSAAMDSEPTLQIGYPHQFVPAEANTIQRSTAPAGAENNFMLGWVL

Assay [1] concerns the target T1, Os018989-4003 aa 90-220 (Oryza sativa).
T1 sequence: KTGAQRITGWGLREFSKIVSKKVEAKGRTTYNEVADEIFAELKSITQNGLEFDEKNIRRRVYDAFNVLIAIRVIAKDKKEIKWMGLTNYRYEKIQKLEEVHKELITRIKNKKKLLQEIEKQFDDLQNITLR
In words: Y2H; output trait library.

Assay [2] has as its target OsTFX1 aa 400-629 (Oryza sativa). In words: Y2H; output trait library.
The target in assay [3] is OsMADS6 aa 50-200 (Oryza sativa) (UniProt Q6EU39). Kind of assay: Y2H; output trait library.
For assay [4], the target named is T2, OsGF14-c aa 1-150 (Oryza sativa) (UniProt Q6ZKC0).
T2 sequence: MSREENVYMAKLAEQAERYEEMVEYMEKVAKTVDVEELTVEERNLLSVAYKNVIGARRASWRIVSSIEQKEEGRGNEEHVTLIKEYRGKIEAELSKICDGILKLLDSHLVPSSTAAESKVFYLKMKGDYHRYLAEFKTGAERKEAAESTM
Kind of assay: Y2H; input trait library.

The target in assay [5] is T3, OsDAD1 aa 30-115 (Oryza sativa) (UniProt A2XSY1).
T3 sequence: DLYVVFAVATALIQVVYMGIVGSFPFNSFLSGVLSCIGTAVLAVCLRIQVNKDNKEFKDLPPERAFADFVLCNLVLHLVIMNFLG
In words: Y2H; input trait library.

These are yes or no findings as the source states them, for the method shown. Some results given as binding are weak or reduced against the parent protein; the word gives no strength.

B1: OsAAG13527 aa 668-859 (protein)
chain: ELQARKQREAALEAALAEKEHLEEEYKKKFDEAKKKELSLENDLAGMWVLVAKLKRGALGISDLNVDDRSINLADITNGTKENKADKNVAVVEKQLSDNTVKSLTAEEYRNPEFEPLLVRLKAKIQEMKEKETDSLGDKDGNSHVCKVCFESATAAVLLPCRHFCLCKPCSLACSECPLCRTRIADRIITFT
For B1, the binding entry in assay [1] is “binds”.

B2: OsPN23829 prey clone -21-216 (protein)
chain: MALSVEKTSSGREYKVKDLSQADFGRLEIELAEVEMPGLMACRAEFGPSQPFKGARISGSLHMTIQTAVLIETLTALGAEVRWCSCNIFSTQDHAAAAIARDSAAVFAWKGETLEEYWWCTERCLDWGVGGGPDLIVDDGGDATLLIHEGVKAEEEFEKSGKVPDPESTDNAEFKIVLTIIRDGLKSDPSKYRKMKERLVGVSEETTTGVKRLYQM
With B2, the binding entry in assay [2] is recorded as “binds”.

B3: OsRP5 aa 13-140 (protein)
chain: VACNASARFDALSQSYRQYQLQSHLLLQQQVLSPCSEFVRQQHSIVATPFWQPATFQLINNQVMQQQCCQQLRLVAQQSHYQAISSVQAIVQQLQLQQVGVVYFDQTQAQAQALLALNLPSICGIYPN
Regarding B3, the binding result in assay [3] was “binds”.

B4: OsPN23022 aa 149-285 (protein)
chain: KKADIGIAVADAIDAARSASDIVLTEPGLSVIISAVLTSRCIFQRMKNYTIYAVSITIRIVLGFLLIALIWKYDFSPFMVLIIAILNDGTIMTISKDRVKPSPLPDSWKLKEIFATGIVLGSYLALMTVIFFWAMHK
Consider B4, for which the binding result in assay [4] was “binds”.

B5: OsPN23022 aa 37-371 (protein)
chain: LFDPPRHDSAETIRKALHLGVNVKMITGDQLAIGKETGRRLGMGTNMYPSSALLGQNKDASLEALPVDELIEKADGFAGVFPEHKYEIVKRLQEKKHIVGMTGDGVNDAPALKKADIGIAVADAIDAARSASDIVLTEPGLSVIISAVLTSRCIFQRMKNYTIYAVSITIRIVLGFLLIALIWKYDFSPFMVLIIAILNDGTIMTISKDRVKPSPLPDSWKLKEIFATGIVLGSYLALMTVIFFWAMHKTDFFTDKFGVRSIRNSEHEMMSALYLQVSIVSQALIFVTRSRSWSFIERPGLLLVTAFMLAQLVATFLAVYANWGFARIKGIGWGW
B5: in assay [5], the binding entry is “binds”.
